Assay results reported in paper PMC10650109.
No constants are given. Whether binding was seen depends on the method and setting. In cells and extracts the contact can be indirect. Some entries that bind do so weakly or less than the wild type.

By UniProt entry, the sequences of proteins in these tests, tags left out. Where a name states a change or a piece, a line headed by the entry shows the natural chain unless it says otherwise.
UniProt Q13586: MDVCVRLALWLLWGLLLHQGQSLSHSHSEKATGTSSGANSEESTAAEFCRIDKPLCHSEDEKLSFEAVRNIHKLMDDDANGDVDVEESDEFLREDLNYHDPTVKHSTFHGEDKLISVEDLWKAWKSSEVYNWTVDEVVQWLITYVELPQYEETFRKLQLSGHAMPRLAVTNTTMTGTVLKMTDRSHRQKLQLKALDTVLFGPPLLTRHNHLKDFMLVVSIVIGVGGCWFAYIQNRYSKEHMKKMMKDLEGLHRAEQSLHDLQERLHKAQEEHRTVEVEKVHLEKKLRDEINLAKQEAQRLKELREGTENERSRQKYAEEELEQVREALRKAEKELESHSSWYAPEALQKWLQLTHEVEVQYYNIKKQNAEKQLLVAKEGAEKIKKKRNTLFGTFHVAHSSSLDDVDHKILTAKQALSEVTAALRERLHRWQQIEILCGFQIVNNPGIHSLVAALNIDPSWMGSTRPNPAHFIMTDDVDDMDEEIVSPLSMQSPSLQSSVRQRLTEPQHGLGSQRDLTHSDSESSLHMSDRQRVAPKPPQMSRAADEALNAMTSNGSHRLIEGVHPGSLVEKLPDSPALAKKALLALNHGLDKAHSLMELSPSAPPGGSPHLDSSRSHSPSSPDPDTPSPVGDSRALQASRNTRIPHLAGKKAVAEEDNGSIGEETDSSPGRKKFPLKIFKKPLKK
UniProt Q99527: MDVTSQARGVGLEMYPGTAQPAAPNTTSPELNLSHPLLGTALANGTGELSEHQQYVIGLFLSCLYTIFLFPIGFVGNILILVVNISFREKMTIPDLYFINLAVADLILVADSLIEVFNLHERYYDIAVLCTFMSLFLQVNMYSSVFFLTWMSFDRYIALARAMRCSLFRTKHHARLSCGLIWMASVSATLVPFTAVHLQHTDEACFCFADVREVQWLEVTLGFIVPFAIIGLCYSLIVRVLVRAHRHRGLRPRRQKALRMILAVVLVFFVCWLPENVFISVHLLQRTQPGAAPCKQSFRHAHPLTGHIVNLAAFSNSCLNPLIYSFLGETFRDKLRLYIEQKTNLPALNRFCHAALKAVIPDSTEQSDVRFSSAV

Experiments:
Assay in all cases: co-IP; HEK293T cells transiently expressing the tagged proteins; IP with anti-FLAG antibody (reciprocal IPs with anti-STIM1 or anti-mCherry antibodies for STIM1; reciprocal co-IPs for CLPTM1 and PRKCSH); immunoblot; no GPER1 agonist
mCherry-STIM1 = mCherry-STIM1 (UniProt Q13586)
[1] = molecular target: N-terminally 3xFLAG-tagged GPER1 (G protein-coupled estrogen receptor 1) (UniProt Q99527)
[2] = molecular target: N-terminally 3xFLAG-tagged GPER1 fused to APEX2 (UniProt Q99527)

Substance: N-terminally 3xFLAG-tagged GPER1 (G protein-coupled estrogen receptor 1) (from UniProt Q99527 1-375)
- binding (mCherry-STIM1): binds

Substance: N-terminally 3xFLAG-tagged GPER1 fused to APEX2 (from UniProt Q99527 1-375) (receptor)
- binding (mCherry-STIM1): binds

Substance: mCherry-STIM1 (1-241) (from UniProt Q13586 23-241) (domain or fragment)
- binding [1]: binds

Substance: mCherry-STIM1 (from UniProt Q13586 23-685)
- binding [2]: binds
- binding [1]: binds
